From PMC9472610
No constants are given. Whether binding was seen depends on the method and setting. Binding seen in cells or lysates may run through a third protein. Some binding calls cover weakened binding; strength is not graded here. For some assays here: Sequences can lack the tags named with a protein. Each block holds one molecule with its values, some of them ahead of it.

By UniProt entry, the sequences of proteins in these tests, tags left out.
UniProt Q9UNE7: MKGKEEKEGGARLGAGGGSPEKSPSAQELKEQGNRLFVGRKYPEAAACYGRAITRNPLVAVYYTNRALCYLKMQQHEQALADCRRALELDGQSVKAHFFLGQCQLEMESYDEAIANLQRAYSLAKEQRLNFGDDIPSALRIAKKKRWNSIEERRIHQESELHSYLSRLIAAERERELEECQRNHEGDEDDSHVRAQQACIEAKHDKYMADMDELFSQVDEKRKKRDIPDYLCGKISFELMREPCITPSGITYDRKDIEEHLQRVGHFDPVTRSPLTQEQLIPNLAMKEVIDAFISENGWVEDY

Columns and labels:
[1] = biological target: T1, IFN regulatory factor 1 (IRF1), wild type (human) (UniProt P10914); experiment: co-IP; HEK293T cells in a 10-cm dish transfected with IRF1 and CHIP plasmids, with or without XAF1, for 24 h; lysis in 50 mM Tris-HCl pH 7.5, 150 mM NaCl, 1 mM EDTA, 1% Triton X-100; immunoblot
T1 sequence: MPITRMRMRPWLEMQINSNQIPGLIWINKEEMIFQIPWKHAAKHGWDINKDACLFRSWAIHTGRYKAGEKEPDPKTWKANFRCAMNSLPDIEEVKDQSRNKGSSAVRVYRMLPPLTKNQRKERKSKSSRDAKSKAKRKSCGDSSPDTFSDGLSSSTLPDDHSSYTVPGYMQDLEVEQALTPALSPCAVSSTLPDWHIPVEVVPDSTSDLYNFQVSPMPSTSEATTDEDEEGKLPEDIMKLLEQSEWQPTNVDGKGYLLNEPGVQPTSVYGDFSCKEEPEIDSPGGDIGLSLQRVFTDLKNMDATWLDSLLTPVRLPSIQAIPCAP

[2] = biological target: T2, XIAP-associated factor 1 (XAF1), Flag-tagged (human) (UniProt Q6GPH4); experiment: co-IP; HEK293T cells cotransfected with XAF1 and IRF1 (WT or truncated mutants) plasmids for 24 h; lysis in 50 mM Tris-HCl pH 7.5, 150 mM NaCl, 1 mM EDTA, 1% Triton X-100; FLAG M2 Affinity Gel, anti-HA-Agarose or antibodies plus protein A/G beads overnight; immunoblot
T2 sequence: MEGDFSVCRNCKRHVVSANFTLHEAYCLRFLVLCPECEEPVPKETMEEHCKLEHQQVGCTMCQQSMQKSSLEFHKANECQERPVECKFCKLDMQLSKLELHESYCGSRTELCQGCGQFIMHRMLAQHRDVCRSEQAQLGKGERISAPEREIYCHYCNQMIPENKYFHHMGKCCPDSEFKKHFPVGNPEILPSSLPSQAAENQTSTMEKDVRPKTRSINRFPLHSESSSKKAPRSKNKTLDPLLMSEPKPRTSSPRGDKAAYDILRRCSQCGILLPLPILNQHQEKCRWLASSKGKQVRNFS

binding [1]: binds
Molecule: CHIP (E3 ligase) (from UniProt Q9UNE7 1-303) (enzyme)

binding [2]: binds
B1: IFN regulatory factor 1 (IRF1), wild type (protein, UniProt P10914 1-325)
chain: T1 sequence
